Results reported in publication doi:10.1101/2025.06.23.660276.
Results are given in words; binding and its absence hold for the method and conditions named. In cells and extracts the contact can be indirect. Here binding means that the protein was enriched with, or labelled near, the bait; the list need not be complete.

Molecular target: T1, TBP-TAP (C. albicans) (UniProt O43133)
T1 sequence: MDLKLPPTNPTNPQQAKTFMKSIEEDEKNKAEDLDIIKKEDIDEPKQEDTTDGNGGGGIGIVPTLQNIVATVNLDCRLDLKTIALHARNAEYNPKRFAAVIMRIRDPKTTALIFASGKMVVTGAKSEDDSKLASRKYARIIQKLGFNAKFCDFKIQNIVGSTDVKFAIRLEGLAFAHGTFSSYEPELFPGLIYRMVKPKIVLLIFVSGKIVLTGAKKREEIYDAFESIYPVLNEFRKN
Assay: affinity purification with mass spectrometry; two-step TAP purification: IgG-Sepharose in TAP extraction buffer (350mM NaCl), TEV cleavage, calmodulin-Sepharose, EGTA elution; MudPIT; untagged SN87 as control

binding: binds
B1: TAF12 (protein, UniProt Q5ADM2 1-515)
chain: MDSSAASSQEKRVGTSTPEAELNPHRAKALLAKFKEEMALAKAATDPQEREKHSELVEKIKRILIRYQEQQKQAKNNSPATKSNLTNQDSTTNTPSPLATNNNSATNVIEPKTETPDSTPMEQKPIQAPTPQHPNNASTSSATMSTTQFQPQPQPQQQTVTVEKYNHVKNTLKDMWKQVKTLEASSINETQTKKEEIDRKITELRNQMQKYHTAALRMKSKLIEQGTIPANSTPIGSPTPVSNTDPTPIANTTNTSNVTPPTEKAEENSKPNVKPPSTTTTTTSKSKPKPLSTTATNSTTKTSTPSKGSGSSKSNNRSSSQNTPGTSTSASATKTASVSTEKDAPLTATTSTSAVAPAAATVAATTAPTAAAAATSLSTASAITTKSTADPKVTPSNIPDNDGRVLTKRKLVEMINNISIDQGDAKIPIDNDVEDIFLDLADEFVRNVVQFSGRLAKHRKLDRIDVRDVQLNLERNWGLRIPGYSTDEIRAARKWQPEGEYAENVKKISKLNKDQ
